Values from PubChem BioAssay AID504784 (Drosophila RNAi Screening Center, 2011).

- Purpose: 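Genome-wide knock-down for genes giving too much or too little stored lipid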 (primary screen)
- Cell system: Drosophila Kc167 embryonic cells
- Reagent: long dsRNA against Drosophila genes, about 250 ng dsRNA per well
- Timing: 4 days
- Treatment: cells fed 400 µM oleic acid bound to BSA
- Detection: 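Cells imaged and segmented; ratio of lipid droplet area to nuclear area, log-transformed, then normalised as a B-score over the screen; higher means more stored lipid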
- Scale: droplet/nuclear area B-score: higher = more stored lipid (overstorage)
In all, the deposit lists about 17,000 reagents; this is a random part of those that have a named target and a result. 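Each column is one replicate's B-score; the combined score over replicates was not deposited, so single values may mislead.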

CG14712 [DRSC14935] | droplet/nuclear area B-score, replicate 1: -6.87; droplet/nuclear area B-score, replicate 2: -4.08
CG5614 [DRSC15845] | droplet/nuclear area B-score, replicate 1: -2.33; droplet/nuclear area B-score, replicate 2: -3.31; droplet/nuclear area B-score, replicate 3: -0.672
CG14196 [DRSC19551] | droplet/nuclear area B-score, replicate 2: 1
CG12111 [DRSC17808] | droplet/nuclear area B-score, replicate 1: -0.244; droplet/nuclear area B-score, replicate 2: 0.968
CG14011 [DRSC02343] | droplet/nuclear area B-score, replicate 1: -2.65; droplet/nuclear area B-score, replicate 2: 1.96
CG31178 [DRSC14590] | droplet/nuclear area B-score, replicate 1: -1.04; droplet/nuclear area B-score, replicate 2: 1.78
CG3815 [DRSC18324] | droplet/nuclear area B-score, replicate 1: -1.46; droplet/nuclear area B-score, replicate 2: -0.438; droplet/nuclear area B-score, replicate 3: -3.33
Rpn2 [DRSC16839] | droplet/nuclear area B-score, replicate 1: 0.000227; droplet/nuclear area B-score, replicate 2: 10.8

Reformatted: 2 of the entries above.
{"gene":"CG3815","amplicon":"DRSC18324","droplet/nuclear area B-score, replicate 1":-1.46,"droplet/nuclear area B-score, replicate 2":-0.438,"droplet/nuclear area B-score, replicate 3":-3.33}
{"gene":"Rpn2","amplicon":"DRSC16839","droplet/nuclear area B-score, replicate 1":0.000227,"droplet/nuclear area B-score, replicate 2":10.8}

The list goes on.
CG1888 [DRSC06797] | droplet/nuclear area B-score, replicate 1: -1.65; droplet/nuclear area B-score, replicate 2: -0.832
CG42365 [DRSC04266] | droplet/nuclear area B-score, replicate 1: -0.111; droplet/nuclear area B-score, replicate 2: -0.491
Neb-cGP [DRSC17991] | droplet/nuclear area B-score, replicate 1: 0.761; droplet/nuclear area B-score, replicate 2: -1.12; droplet/nuclear area B-score, replicate 3: -0.00732
inaF-B [DRSC18903] | droplet/nuclear area B-score, replicate 1: -1.21; droplet/nuclear area B-score, replicate 2: -0.944
Uvrag [DRSC02932] | droplet/nuclear area B-score, replicate 1: 1.85; droplet/nuclear area B-score, replicate 2: -0.0195
CG32079 [DRSC22636] | droplet/nuclear area B-score, replicate 1: -1.35; droplet/nuclear area B-score, replicate 2: 0.197
His-Psi:CR31754 [DRSC22051] | droplet/nuclear area B-score, replicate 1: 3.89; droplet/nuclear area B-score, replicate 2: 5.64
UBL3 [DRSC20298] | droplet/nuclear area B-score, replicate 1: -0.83
UBL3 [DRSC23292] | droplet/nuclear area B-score, replicate 1: 0.133; droplet/nuclear area B-score, replicate 2: 1.2
